Results as given in patent US20260053716A1 (HYSENSBIO CO., LTD, priority 2022, published 2026).

Experiment: general procedure: Fmoc solid-phase peptide synthesis
Settings: whole synthesis, high-performance liquid chromatography

KYKQKRRSYK
purity (crude or final not stated): 97% or higher

Ends that are not written are not given here.
